No constants are given. Whether binding was seen depends on the method and setting. Binding seen in cells or lysates may run through a third protein.
Target: HA-Hax1 (UniProt O00165)
Experiment: co-IP; HEK293T cells transfected with Myc- or HA-tagged proteins, NP40 lysis buffer (1% NP40, 20 mM Tris-HCl pH 8.0, 0.8% NaCl, 10% glycerol), HA-agarose beads overnight at 4 °C, immunoblot

Protein sequences, listed by entry. Tags and fused reporters are not part of them. Lines headed by an entry give the natural chain unless they say otherwise; changes in a name come on top.
UniProt O00165: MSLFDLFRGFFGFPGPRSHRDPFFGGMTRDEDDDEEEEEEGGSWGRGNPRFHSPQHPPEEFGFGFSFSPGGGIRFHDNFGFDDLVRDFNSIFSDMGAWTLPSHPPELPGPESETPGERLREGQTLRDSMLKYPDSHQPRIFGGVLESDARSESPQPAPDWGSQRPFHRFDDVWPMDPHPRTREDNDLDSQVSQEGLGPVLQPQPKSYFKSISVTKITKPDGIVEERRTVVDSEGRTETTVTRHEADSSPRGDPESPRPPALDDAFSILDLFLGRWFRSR
UniProt P46940: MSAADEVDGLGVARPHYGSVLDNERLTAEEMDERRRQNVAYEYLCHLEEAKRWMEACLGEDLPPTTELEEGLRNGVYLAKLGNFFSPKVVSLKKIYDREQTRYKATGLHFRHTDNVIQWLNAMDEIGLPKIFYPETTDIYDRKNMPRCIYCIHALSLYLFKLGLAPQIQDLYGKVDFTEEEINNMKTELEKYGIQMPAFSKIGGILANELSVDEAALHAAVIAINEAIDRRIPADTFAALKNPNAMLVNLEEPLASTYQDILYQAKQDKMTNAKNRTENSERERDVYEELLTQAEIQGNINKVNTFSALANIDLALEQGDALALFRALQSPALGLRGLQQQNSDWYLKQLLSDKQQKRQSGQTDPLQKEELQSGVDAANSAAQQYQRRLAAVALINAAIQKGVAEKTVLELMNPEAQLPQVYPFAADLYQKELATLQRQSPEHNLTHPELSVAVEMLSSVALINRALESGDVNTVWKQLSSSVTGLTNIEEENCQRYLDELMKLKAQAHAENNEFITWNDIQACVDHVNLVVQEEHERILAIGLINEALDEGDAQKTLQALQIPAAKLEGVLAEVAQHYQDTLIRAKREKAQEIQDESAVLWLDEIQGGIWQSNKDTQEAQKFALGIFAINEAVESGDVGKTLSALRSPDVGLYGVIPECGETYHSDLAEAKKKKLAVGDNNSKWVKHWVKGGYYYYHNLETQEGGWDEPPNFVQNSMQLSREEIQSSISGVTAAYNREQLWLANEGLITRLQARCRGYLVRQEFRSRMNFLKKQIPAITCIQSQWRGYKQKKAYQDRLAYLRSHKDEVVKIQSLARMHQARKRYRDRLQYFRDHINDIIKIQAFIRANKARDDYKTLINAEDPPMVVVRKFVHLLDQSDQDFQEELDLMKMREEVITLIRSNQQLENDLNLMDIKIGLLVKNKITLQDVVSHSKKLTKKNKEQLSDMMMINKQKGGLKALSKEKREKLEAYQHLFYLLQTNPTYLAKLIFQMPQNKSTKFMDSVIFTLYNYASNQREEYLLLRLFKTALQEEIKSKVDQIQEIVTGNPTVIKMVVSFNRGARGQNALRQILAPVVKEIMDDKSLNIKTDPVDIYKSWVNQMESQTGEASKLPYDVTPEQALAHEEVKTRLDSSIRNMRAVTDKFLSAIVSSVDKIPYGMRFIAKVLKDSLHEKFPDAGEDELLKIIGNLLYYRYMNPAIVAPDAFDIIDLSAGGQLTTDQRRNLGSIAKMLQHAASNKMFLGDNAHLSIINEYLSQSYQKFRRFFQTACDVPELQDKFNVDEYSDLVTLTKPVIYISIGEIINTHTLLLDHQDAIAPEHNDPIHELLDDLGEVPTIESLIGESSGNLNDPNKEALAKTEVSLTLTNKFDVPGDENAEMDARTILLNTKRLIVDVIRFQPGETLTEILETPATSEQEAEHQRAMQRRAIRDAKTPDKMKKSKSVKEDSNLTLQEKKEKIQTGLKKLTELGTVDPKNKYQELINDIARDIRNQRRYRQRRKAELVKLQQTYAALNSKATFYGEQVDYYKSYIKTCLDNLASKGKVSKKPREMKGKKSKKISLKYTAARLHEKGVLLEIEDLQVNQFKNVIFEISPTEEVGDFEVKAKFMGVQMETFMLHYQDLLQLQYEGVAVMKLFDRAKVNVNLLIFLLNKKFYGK

binding: no binding
Substance: IQGAP1 ΔRGCT mutant (from UniProt P46940) (domain or fragment)

Source: publication PMC10364419
